Measurements from patent US5252581A, “Substituted aminothienopyridines, pharmaceutical composition and use” (Hoechst-Roussel Pharmaceuticals Inc., priority 1992, dated 1993).

Amino acid sequences for entries named in this document (tags omitted). Residues count along the entry.
UniProt Q63380, 1-617: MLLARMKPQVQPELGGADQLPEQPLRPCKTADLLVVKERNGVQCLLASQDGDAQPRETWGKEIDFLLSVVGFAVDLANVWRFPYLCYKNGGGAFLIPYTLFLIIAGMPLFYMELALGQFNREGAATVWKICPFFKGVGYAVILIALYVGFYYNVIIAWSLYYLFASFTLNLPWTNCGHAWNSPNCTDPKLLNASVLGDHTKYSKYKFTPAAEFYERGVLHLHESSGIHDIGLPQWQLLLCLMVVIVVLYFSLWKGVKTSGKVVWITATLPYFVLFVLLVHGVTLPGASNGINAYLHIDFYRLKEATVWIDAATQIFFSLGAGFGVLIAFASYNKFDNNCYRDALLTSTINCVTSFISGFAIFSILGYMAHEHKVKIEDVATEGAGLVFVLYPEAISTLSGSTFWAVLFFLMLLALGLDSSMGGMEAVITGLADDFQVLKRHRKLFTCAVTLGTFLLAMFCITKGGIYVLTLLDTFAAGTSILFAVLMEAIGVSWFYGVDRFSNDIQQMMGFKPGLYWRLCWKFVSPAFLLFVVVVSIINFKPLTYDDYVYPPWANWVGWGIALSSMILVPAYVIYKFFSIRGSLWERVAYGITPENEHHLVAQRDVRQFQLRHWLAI

Molecular target: T1, ^3 H-Norepinephrine reuptake (Rattus norvegicus, UniProt Q63380)
T1 construct: from tissue; host or cells: whole brain (WB), rat inferred
Assay: Inhibition of Biogenic Amine Reuptake, ^3 H-Norepinephrine (WB)
Assay type: biochemical

## CN(C)CCCN1c2ccccc2CCc2ccc(Cl)cc21 [Clomipramine, reference compound]
  IC50: 360 nM
